Consider two molecules from publication doi:10.1101/508549.

Sequences of proteins named here, by UniProt entry; tags and fusion partners are left off. A change or cut given only in a name is not applied to a line headed by its entry.
UniProt Q07955: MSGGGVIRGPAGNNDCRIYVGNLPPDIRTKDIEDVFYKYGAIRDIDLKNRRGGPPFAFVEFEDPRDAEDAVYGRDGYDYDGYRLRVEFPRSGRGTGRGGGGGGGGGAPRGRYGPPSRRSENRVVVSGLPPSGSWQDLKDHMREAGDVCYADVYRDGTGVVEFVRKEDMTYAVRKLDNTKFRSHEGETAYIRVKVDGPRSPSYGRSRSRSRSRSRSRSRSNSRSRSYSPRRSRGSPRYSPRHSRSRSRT

The target in this assay is SRSF1 mSD-mCherry-NLS-[FLAG]3 (phosphomimetic RS-domain mutant) (human) (UniProt Q07955). The experiment in a line: affinity purification with mass spectrometry.

Results are given in words; binding and its absence hold for the method and conditions named. In cells and extracts the contact can be indirect. A yes stands for co-enrichment or nearness to the bait. Other partners may have been found.

B1: TRA2a (protein, UniProt Q13595 1-282)
chain: MSDVEENNFEGRESRSQSKSPTGTPARVKSESRSGSRSPSRVSKHSESHSRSRSKSRSRSRRHSHRRYTRSRSHSHSHRRRSRSRSYTPEYRRRRSRSHSPMSNRRRHTGSRANPDPNTCLGVFGLSLYTTERDLREVFSRYGPLSGVNVVYDQRTGRSRGFAFVYFERIDDSKEAMERANGMELDGRRIRVDYSITKRAHTPTPGIYMGRPTHSGGGGGGGGGGGGGGGGRRRDSYYDRGYDRGYDRYEDYDYRYRRRSPSPYYSRYRSRSRSRSYSPRRY
Turning to B1, the binding entry is on record as “binds”.

B2: TRA2b (protein, UniProt P62995 1-288)
chain: MSDSGEQNYGERESRSASRSGSAHGSGKSARHTPARSRSKEDSRRSRSKSRSRSESRSRSRRSSRRHYTRSRSRSRSHRRSRSRSYSRDYRRRHSHSHSPMSTRRRHVGNRANPDPNCCLGVFGLSLYTTERDLREVFSKYGPIADVSIVYDQQSRRSRGFAFVYFENVDDAKEAKERANGMELDGRRIRVDFSITKRPHTPTPGIYMGRPTYGSSRRRDYYDRGYDRGYDDRDYYSRSYRGGGGGGGGWRAAQDRDQIYRRRSPSPYYSRGGYRSRSRSRSYSPRRY
Turning to B2, the binding entry was “binds”.
